Reference: PubChem BioAssay AID504793 (Drosophila RNAi Screening Center, 2011)

Screen: 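Genes required for cells to halt at G2/M after double-strand DNA breaks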 (primary screen)
Cells: Drosophila S2R+ cells
Reagents: long dsRNA against Drosophila genes, about 0.25 µg dsRNA per well
Time to read-out: 4 days of dsRNA, then 4 hours of drug before read-out
Conditions: doxorubicin 0.5 µM for 4 hours to cause double-strand breaks, in cells also given a low, harmless dose of dsRNA against nbs to sensitise the assay
Measurement: 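Mitotic index as the number of phospho-histone H3-positive cells in each well following doxorubicin, given as raw counts without normalisation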
Scale: mitotic cells: higher = more cells in mitosis, weaker G2 arrest
Rule for the call: 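Genes are called active only when high mitotic counts were reproduced with independent dsRNAs and mitosis was checked for delay without damage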
Calls: active = confirmed in follow-up tests; inactive = not confirmed
The screen tested about 23,000 reagents; below is an unselected part of those with a known target gene and a result. Over the whole deposit, 62 (0.27%) are marked active. 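Calls come from follow-up tests whose scores are not deposited, so confirmed genes may have low counts here; counts are not normalised per plate.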 Raw values vary from plate to plate and are shown uncorrected. Entries without a mark were called inactive. Reagents against one gene are numbered here. Reagent sequences are not shown.

What is on record for Sr-CII #1?
mitotic cells, replicate 1: 7

How did the screen score Sr-CII #2?
mitotic cells, replicate 1: 6

With PolH, how do the results read?
mitotic cells, replicate 1: 3

How did the screen score CG7886?
mitotic cells, replicate 1: 5

What did the screen give for Cyp18a1 #1?
mitotic cells, replicate 1: 8

How did the screen score Cyp18a1 #2?
mitotic cells, replicate 1: 3

What is on record for smog #1?
mitotic cells, replicate 1: 7

With smog #2, how do the results read?
mitotic cells, replicate 1: 15

How did the screen score smog #3?
mitotic cells, replicate 1: 7

For CG9254, how do the results read?
mitotic cells, replicate 1: 6

With CG31213 #1, what does the deposit list?
mitotic cells, replicate 1: 7

For CG31213 #2, what does the deposit list?
mitotic cells, replicate 1: 7

With CG8665, what does the deposit list?
mitotic cells, replicate 1: 3

With Cyp317a1, how do the results read?
mitotic cells, replicate 1: 7

Records above whose gene name starts with S or s:
Sr-CII #1 | mitotic cells, replicate 1: 7
Sr-CII #2 | mitotic cells, replicate 1: 6
smog #1 | mitotic cells, replicate 1: 7
smog #2 | mitotic cells, replicate 1: 15
smog #3 | mitotic cells, replicate 1: 7
